PubChem BioAssay AID493246 – Drosophila RNAi Screening Center, 2011
The screen tested about 21,000 reagents; shown is an unselected part of those with a known target gene and a result. Over the whole deposit, 429 (2%) got an active call. 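Values are raw and not normalised between plates; calls rest on per-plate z-scores that were not deposited.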 Entries without a mark were called inactive. Reagents against one gene are numbered here. The record does not give: the amount of reagent, the time to read-out.

- Assay: 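Genes fly cells need to grow and stay alive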 (primary screen)
- Cell system: Drosophila Kc and S2R+ cells
- Reagent: long dsRNA against Drosophila genes
- Detection: 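Raw, unnormalised count of remaining cells in each well; per-plate z-scores of cell number underlie the calls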
- Reading the numbers: Kc cell number and S2R+ cell number: higher = more cells remaining
- Rule for the call: 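Active when the per-plate z-score of cell number is 3 or more in the direction of fewer cells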

With knock-down of Sb (Stubble), the record shows Kc cell number, rep 1 = 1.33e6; Kc cell number, rep 2 = 1.52e6; S2R+ cell number, rep 1 = 1.20e6; S2R+ cell number, rep 2 = 1.36e6.
CstF64 (Cleavage stimulation factor 64 kD subunit) showed Kc cell number, rep 1 = 1.45e6; Kc cell number, rep 2 = 1.43e6; S2R+ cell number, rep 1 = 1.11e6; S2R+ cell number, rep 2 = 1.21e6.
Silencing of Polr3C (RNA polymerase III subunit C) came out at: Kc cell number, rep 1 = 1.56e6; Kc cell number, rep 2 = 1.66e6; S2R+ cell number, rep 1 = 1.27e6; S2R+ cell number, rep 2 = 1.42e6.
Against Corin the deposit lists Kc cell number, rep 1 = 1.63e6; Kc cell number, rep 2 = 1.73e6; S2R+ cell number, rep 1 = 1.30e6; S2R+ cell number, rep 2 = 1.44e6.
For Ugt49B1 (UDP-glycosyltransferase family 49 member B1) the deposit lists Kc cell number, rep 1 = 1.46e6; Kc cell number, rep 2 = 1.53e6; S2R+ cell number, rep 1 = 1.34e6; S2R+ cell number, rep 2 = 2.99e5.
After knock-down of BEAF-32 (Boundary element-associated factor of 32kD), the record shows Kc cell number, rep 1 = 1.42e6; Kc cell number, rep 2 = 1.47e6; S2R+ cell number, rep 1 = 1.16e6; S2R+ cell number, rep 2 = 1.29e6.
Depletion of SA1 (Stromalin 1) resulted in: Kc cell number, rep 1 = 1.12e6; Kc cell number, rep 2 = 1.34e6; S2R+ cell number, rep 1 = 6.42e5; S2R+ cell number, rep 2 = 8.46e5.
Against lov (jim lovell) #1, the entry reads Kc cell number, rep 1 = 1.62e6; Kc cell number, rep 2 = 1.55e6; S2R+ cell number, rep 1 = 1.34e6; S2R+ cell number, rep 2 = 1.35e6.
With knock-down of lov (jim lovell) #2, the screen gave Kc cell number, rep 1 = 1.61e6; Kc cell number, rep 2 = 1.54e6; S2R+ cell number, rep 1 = 1.32e6; S2R+ cell number, rep 2 = 1.26e6.
snk (snake) gave Kc cell number, rep 1 = 1.48e6; Kc cell number, rep 2 = 1.49e6; S2R+ cell number, rep 1 = 1.10e6; S2R+ cell number, rep 2 = 1.21e6.

Copied from the listing, 3 entries:
Polr3C (RNA polymerase III subunit C) → Kc cell number, rep 1 = 1.56e6; Kc cell number, rep 2 = 1.66e6; S2R+ cell number, rep 1 = 1.27e6; S2R+ cell number, rep 2 = 1.42e6
Corin → Kc cell number, rep 1 = 1.63e6; Kc cell number, rep 2 = 1.73e6; S2R+ cell number, rep 1 = 1.30e6; S2R+ cell number, rep 2 = 1.44e6
Ugt49B1 (UDP-glycosyltransferase family 49 member B1) → Kc cell number, rep 1 = 1.46e6; Kc cell number, rep 2 = 1.53e6; S2R+ cell number, rep 1 = 1.34e6; S2R+ cell number, rep 2 = 2.99e5

Additional results follow:
Ir52b (Ionotropic receptor 52b) gave Kc cell number, rep 1 = 1.85e6; Kc cell number, rep 2 = 1.85e6; S2R+ cell number, rep 1 = 1.28e6; S2R+ cell number, rep 2 = 1.53e6.
Depletion of CG10494 came out at: Kc cell number, rep 1 = 1.30e6; Kc cell number, rep 2 = 1.40e6; S2R+ cell number, rep 1 = 1.20e6; S2R+ cell number, rep 2 = 1.23e6.
With knock-down of CG6678, the screen gave Kc cell number, rep 1 = 1.52e6; Kc cell number, rep 2 = 1.53e6; S2R+ cell number, rep 1 = 1.23e6; S2R+ cell number, rep 2 = 1.27e6.
Against GM130 (Golgi matrix protein 130 kD) the deposit lists Kc cell number, rep 1 = 1.34e6; Kc cell number, rep 2 = 1.43e6; S2R+ cell number, rep 1 = 9.77e5; S2R+ cell number, rep 2 = 1.10e6.
With knock-down of CG12689, the screen gave Kc cell number, rep 1 = 1.53e6; Kc cell number, rep 2 = 1.52e6; S2R+ cell number, rep 1 = 1.12e6; S2R+ cell number, rep 2 = 1.20e6.
After knock-down of CG12426, the record shows Kc cell number, rep 1 = 1.44e6; Kc cell number, rep 2 = 1.46e6; S2R+ cell number, rep 1 = 9.49e5; S2R+ cell number, rep 2 = 1.07e6.
For Gr22e (Gustatory receptor 22e), the values are Kc cell number, rep 1 = 1.64e6; Kc cell number, rep 2 = 1.91e6; S2R+ cell number, rep 1 = 1.27e6; S2R+ cell number, rep 2 = 1.29e6.
After knock-down of Pop1 (POP1 ribonuclease P/MRP subunit), the record shows Kc cell number, rep 1 = 5.86e5; S2R+ cell number, rep 1 = 9.01e5.
With knock-down of PPP1R15 (Protein phosphatase 1 regulatory subunit 15) the results were Kc cell number, rep 1 = 1.20e6; Kc cell number, rep 2 = 1.32e6; S2R+ cell number, rep 1 = 7.43e5; S2R+ cell number, rep 2 = 8.09e5.
After knock-down of Cam (Calmodulin) #1 the results were Kc cell number, rep 1 = 1.44e6; Kc cell number, rep 2 = 1.52e6; S2R+ cell number, rep 1 = 1.23e6; S2R+ cell number, rep 2 = 1.42e6.
Against Cam (Calmodulin) #2 the deposit lists Kc cell number, rep 1 = 1.56e6; Kc cell number, rep 2 = 1.51e6; S2R+ cell number, rep 1 = 1.28e6; S2R+ cell number, rep 2 = 1.39e6.
